Measurements taken from PubChem BioAssay AID652175 (National Center for Advancing Translational Sciences (NCATS), 2013).
The shares of active, inactive and inconclusive entries below differ from those in the screen. Potencies of inconclusive entries are doubtful fits and often do not repeat. The source made the active and inactive calls. Calls come from the whole dose curve; as a rule, active = well fitted inhibition curve with a large enough effect; inconclusive = small, poorly fitted or top-dose-only effect; inactive = no such curve, though single readings can be large or run the other way.

Assay: qHTS Assay for Lipid Storage Modulators: S3 Assay against Probe and Analogs
Conditions: Drosophila S3 cells, BODIPY lipid droplet fluorescence, 18-24 h; oleic acid added to induce droplets
Excerpt: Storing lipids as a reservoir for energy or the anabolism of elementary metabolites is a common feature of probably all cells and is conserved from bacteria to humans. The universal cellular lipid storage organelle is the so-called lipid storage droplet (LD). Although ubiquitous, LDs share a simple structure composed of a hydrophobic core that harbors the storage lipids, which is shielded by a droplet-specific phospholipid monolayer to which proteins are attached. The current model of LD biogenesis involves an incorporation of the lipid core into the membrane leaflets of the endoplasmic reticulum (ER) followed by a subsequent budding-like maturation of a LD, which ultimately pinches off. Once released, LD volume can increase by localized lipogenesis or fusion of existing droplets. Storage lipids are re-mobilized enzymatically by lipase activity. Lipase regulation in the adipocyte is heavily studied and involves multiple components including catecholamine signaling, the LD-associated proteins Perilipin and comparative gene identification-58 (CGI-58) and at least two lipases named hormone sensitive lipase (HSL) and adipocyte triglyceride lipase (ATGL). LD regulation outside of the adipocyte is poorly understood and only few components are known. However, there is an urgent need to learn more about ectopic fat depots as mislocalized storage of lipids, for example in the liver or muscle, is an eminent health problem associated with insulin resistance or the metabolic syndrome. We developed a laser-scanning cytometer assay to enable 1,536-well screening and combined the results of the small molecules screen with an RNAi database based on lipid storage. In this assay we tested analogs of the probe against the original qHTS assay, which involved drosophila melanogaster cells (S3), to see if these small molecules could disrupt lipid storage. NIH Molecular Libraries Probe Production Centers Network [MLPCN] NIH Chemical Genomics Center [NCGC] MLPCN Grant: MH085686 Assay Submitter (PI): Mathias Beller, Max-Planck-Institut fur Biophysikalische Chemie
qHTS was performed with embryonic Drosophila S3 cells (Bloomington Drosophila Genomics Resource Center [DGRC]). We dispensed 4 uL of cells at 1.25 x 10^6 cells/mL into LoBase Aurora COC 1,536-well plates (black walled, clear bottom) with a bottle-valve solenoid-based dispenser (Aurora) to obtain 5,000 cells/well. Triacsin C (Sigma-Aldrich T-4540), an inhibitor of long-chain fatty acyl CoA synthetase that blocks synthesis of triglycerides, was used as a positive control for lipid under-storage. A total of 23 nL of compounds dissolved in DMSO at different concentrations were transferred to the assay plates using a Kalypsys pin tool equipped with a 1,536-pin array containing 10-nL slotted pins (FP1S10, 0.457-mm diameter, 50.8 mm long; V&P Scientific). The final DMSO concentration was 0.46%. One microliter of oleic acid at 400 uM (Calbiochem, #4954) was added to induce lipid droplet formation in the cells, and the plates were lidded with stainless steel rubber gasket lined lids containing pinholes. […] Fluorescence was detected by excitation of the fluorophores with a 488-nm laser on an Acumen Explorer (TTP Lab Tech). […] Cells were detected using channel 3 (575-640 nm) with 5-um width and 100-um depth filters. The ratio of the total intensity in PMT channel 1 over total intensity of channel 3 was also calculated. […]

SMILES	Potency
CCOc1ccc(CCNC(=O)c2cc3ccccc3n2Cc2cccc(C)c2)cc1OCC	active: 3.3 nM
CCOc1ccc(CCNC(=O)c2cc3sccc3n2Cc2ccc(F)cc2F)cc1OCC	active: 16.6 nM
CCOC(=O)C1CCN(C(=O)C2(NC(=O)Nc3ccccc3Cl)CCCC2)CC1	inconclusive: 2940 nM [inhibitor, full curve, poor fit]
CCOc1ccc(CCNC(=O)c2cc3cccnc3n2Cc2cccc(C)n2)cc1OCC	inconclusive: 4690 nM [inhibitor, full curve, poor fit]
CCOc1ccc(CCNC(=O)c2cc3ncccc3n2Cc2cccc(C)n2)cc1OCC	inconclusive: 4180 nM [inhibitor, full curve, poor fit]
